{"source": "PubChem BioAssay AID298", "about": "(DTP/NCI, 2004)", "tested_on": "MX-1 breast xenograft, intrarenal, nude mice, tumor weight", "assay": "NCI In Vivo Anticancer Drug Screen. Data for tumor model Human Mammary Carcinoma MX-1 Xenograft (intrarenal inoculation) in NU/NU BALB/C (nude) mice", "conditions": "T/C endpoint: mean tumor weight change, higher T/C = larger tumour; for T/C: evaluated on day 11", "procedure": "The antitumor activity of compounds was measured in mice bearing transplantable tumors. Survival or tumor size were measured and the results are expressed as the measurement made in the treated group (T) divided by the measurement made in the vehicle treated control group (C). The tumor model used in this assay is Human Mammary Carcinoma MX-1 Xenograft (intrarenal inoculation) in NU/NU BALB/C (nude) mice", "key": {"[1]": {"conditions": "dose: 300.0 mg/kg/injection, schedule: Q04DX003 (ip), vehicle: saline with Tween-80"}, "[2]": {"conditions": "dose: 100.0 mg/kg/injection, schedule: Q01DX010 (sc), vehicle: Klucel (hydroxypropylcellulose) (HPC)"}, "[3]": {"conditions": "dose: 50.0 mg/kg/injection, schedule: Q04DX003 (ip), vehicle: saline with Tween-80"}}, "note": "The list does not hold the whole screen: it is rich in T/C values a quarter to a half above the control, in often repeated tests (any T/C) and in doses without a T/C. Further doses and runs are listed elsewhere. T/C: endpoint of the treated group in % of that of the vehicle group. Schedule codes are those of the source, read here as Q, the interval in days (D) or hours (H), X, the number of doses. Some T/C values are followed by the survivors on the day toxicity was checked, most often the fifth; without a count, all were alive then. Some doses have a count of surviving animals in place of a T/C: the source files T/C as zero there, which appears to mark a toxic dose or a test without result, not a measured value. Counts of survivors are from the toxicity check (mostly the fifth day) where no day follows; animals may have died later.", "data": [{"smiles": "CCN(CC)c1cc(C(=O)O)cc(N(CC)CC)n1", "values": [{"measurement": "survivor count", "setting": "dose: 200.0 mg/kg/injection, schedule: Q04DX003 (ip), vehicle: other", "value": "0 of 6 on day 11"}, {"measurement": "survivor count", "setting": "dose: 400.0 mg/kg/injection, schedule: Q04DX003 (ip), vehicle: other", "value": "0 of 6 on day 11"}]}, {"smiles": "CN=C(N)c1ccc(N=C(N)c2ccc(C(N)=Nc3ccc(C(N)=NC)cc3)cc2)cc1", "values": [{"measurement": "survivor count", "setting": "dose: 60.0 mg/kg/injection, schedule: Q04DX003 (ip), vehicle: saline", "value": "0 of 6 on day 11"}, {"measurement": "survivor count", "setting": "dose: 120.0 mg/kg/injection, schedule: Q04DX003 (ip), vehicle: saline", "value": "0 of 6 on day 11"}]}, {"smiles": "CSCCC(N)C(=O)O", "note": "(configuration not stated)", "values": [{"measurement": "T/C", "setting": "[1]", "value": "129 % of control"}]}, {"smiles": "c1ccc2c3c(c4c(c2c1)CN(C1CCCCC1)CO4)OCN(C1CCCCC1)C3", "values": [{"measurement": "T/C", "setting": "dose: 37.5 mg/kg/injection, schedule: Q04DX003 (ip), vehicle: water", "value": "137 % of control"}, {"measurement": "survivor count", "setting": "dose: 150.0 mg/kg/injection, schedule: Q04DX003 (ip), vehicle: water", "value": "2 of 6 on day 11"}, {"measurement": "survivor count", "setting": "dose: 300.0 mg/kg/injection, schedule: Q04DX003 (ip), vehicle: water", "value": "1 of 6 on day 11"}]}, {"smiles": "COc1ccc(C=C(C(=O)CCN(C)C)C(=O)CCN(C)C)cc1", "values": [{"measurement": "survivor count", "setting": "dose: 400.0 mg/kg/injection, schedule: Q04DX003 (ip), vehicle: saline", "value": "1 of 6 on day 11"}]}, {"smiles": "CC[C@@]1(O)C(=O)OCc2c1cc1n(c2=O)Cc2cc3c(N)cccc3nc2-1", "values": [{"measurement": "survivor count", "setting": "dose: 4.0 mg/kg/injection, schedule: Q04DX003 (ip), vehicle: saline with Tween-80", "value": "1 of 6 on day 11"}, {"measurement": "survivor count", "setting": "dose: 8.0 mg/kg/injection, schedule: Q04DX003 (ip), vehicle: saline with Tween-80", "value": "0 of 6 on day 11"}]}, {"smiles": "CN(Cc1cnc2nc(N)nc(N)c2n1)c1c(Cl)cc(C(=O)NC(CCC(=O)O)C(=O)O)cc1Cl", "note": "(configuration not stated)", "values": [{"measurement": "survivor count", "setting": "[2]", "value": "0 of 3 on day 11"}]}, {"smiles": "O=C1N[C@H]2[C@H](CS[C@H]2CCCCC(=O)N(CCP(c2ccccc2)c2ccccc2)CCP(c2ccccc2)c2ccccc2)N1", "values": [{"measurement": "T/C", "setting": "dose: 300.0 mg/kg/injection, schedule: Q04DX003 (sc), vehicle: Klucel (hydroxypropylcellulose) (HPC)", "value": "146 % of control"}]}, {"smiles": "CC(C)N1C(=O)N(Cl)C2C1N(Cl)C(=O)N2Cl", "note": "(configuration not stated)", "values": [{"measurement": "T/C", "setting": "dose: 12.5 mg/kg/injection, schedule: Q04DX003 (ip), vehicle: saline with Tween-80", "value": "125 % of control"}, {"measurement": "T/C", "setting": "[3]", "value": "130 % of control"}, {"measurement": "survivor count", "setting": "dose: 100.0 mg/kg/injection, schedule: Q04DX003 (ip), vehicle: saline with Tween-80", "value": "1 of 6 on day 11"}, {"measurement": "survivor count", "setting": "dose: 150.0 mg/kg/injection, schedule: Q04DX003 (ip), vehicle: saline with Tween-80", "value": "3 of 6 on day 11"}, {"measurement": "survivor count", "setting": "[1]", "value": "0 of 6 on day 11"}, {"measurement": "survivor count", "setting": "dose: 600.0 mg/kg/injection, schedule: Q04DX003 (ip), vehicle: saline with Tween-80", "value": "0 of 6 on day 11"}, {"measurement": "survivor count", "setting": "dose: 1200.0 mg/kg/injection, schedule: Q04DX003 (ip), vehicle: saline with Tween-80", "value": "0 of 6 on day 11"}]}, {"smiles": "CCOc1ccc(C(C)c2cc3c(cc2OC)OCO3)cc1", "note": "(configuration not stated)", "values": [{"measurement": "survivor count", "setting": "dose: 1200.0 mg/kg/injection, schedule: Q04DX003 (ip), vehicle: distilled water + Tween-80", "value": "0 of 6 on day 11"}]}, {"smiles": "O=C(CCCN1CCC(O)(c2cccc(C(F)(F)F)c2)CC1)c1ccc(F)cc1", "values": [{"measurement": "survivor count", "setting": "dose: 50.0 mg/kg/injection, schedule: Q01DX010 (sc), vehicle: Klucel (hydroxypropylcellulose) (HPC)", "value": "1 of 3 on day 11"}, {"measurement": "survivor count", "setting": "[2]", "value": "0 of 3 on day 11"}, {"measurement": "survivor count", "setting": "dose: 200.0 mg/kg/injection, schedule: Q01DX010 (sc), vehicle: Klucel (hydroxypropylcellulose) (HPC)", "value": "0 of 3 on day 11"}]}, {"smiles": "O=C1C=CC(=CC=C2C=CN(CCCCCCCCCCCO)C=C2)C=C1", "values": [{"measurement": "T/C", "setting": "[3]", "value": "144 % of control [4 of 6 alive on day 11]"}, {"measurement": "survivor count", "setting": "dose: 200.0 mg/kg/injection, schedule: Q04DX003 (ip), vehicle: saline with Tween-80", "value": "0 of 6 on day 11"}, {"measurement": "survivor count", "setting": "dose: 400.0 mg/kg/injection, schedule: Q04DX003 (ip), vehicle: saline with Tween-80", "value": "0 of 6 on day 11"}]}]}
